The target of assay [1] is endogenous Targeting protein for Xklp2 (TPX2) (human (endogenous in U2OS and HEK293T)) (UniProt Q9ULW0). Nature of the assay: co-IP; antibody to endogenous TPX2 (or IgG) on Dynabeads Protein G, whole cell lysate, 2 h 4°C, five washes with modified RIPA buffer, Western blot.
In assay [2] the target is GFP-tagged TPX2, full length (expressed in U2OS cells) (UniProt Q9ULW0). In words: co-IP; GFP-TPX2 precipitated (GFP-IP), Western blot for endogenous PARP1; also after control or HPF1 knock-down.
Assay [3] concerns the target endogenous Targeting protein for Xklp2 (TPX2) (human (endogenous in U2OS and HEK293T)) (UniProt Q9ULW0). In words: proximity ligation; Duolink PLA with antibodies to the endogenous proteins in fixed, permeabilised cells; DMSO or hydroxyurea 2 or 18 h; control, TPX2 knock-down.

The chains behind the UniProt entries cited, without tags or fusion partners.
UniProt Q9ULW0: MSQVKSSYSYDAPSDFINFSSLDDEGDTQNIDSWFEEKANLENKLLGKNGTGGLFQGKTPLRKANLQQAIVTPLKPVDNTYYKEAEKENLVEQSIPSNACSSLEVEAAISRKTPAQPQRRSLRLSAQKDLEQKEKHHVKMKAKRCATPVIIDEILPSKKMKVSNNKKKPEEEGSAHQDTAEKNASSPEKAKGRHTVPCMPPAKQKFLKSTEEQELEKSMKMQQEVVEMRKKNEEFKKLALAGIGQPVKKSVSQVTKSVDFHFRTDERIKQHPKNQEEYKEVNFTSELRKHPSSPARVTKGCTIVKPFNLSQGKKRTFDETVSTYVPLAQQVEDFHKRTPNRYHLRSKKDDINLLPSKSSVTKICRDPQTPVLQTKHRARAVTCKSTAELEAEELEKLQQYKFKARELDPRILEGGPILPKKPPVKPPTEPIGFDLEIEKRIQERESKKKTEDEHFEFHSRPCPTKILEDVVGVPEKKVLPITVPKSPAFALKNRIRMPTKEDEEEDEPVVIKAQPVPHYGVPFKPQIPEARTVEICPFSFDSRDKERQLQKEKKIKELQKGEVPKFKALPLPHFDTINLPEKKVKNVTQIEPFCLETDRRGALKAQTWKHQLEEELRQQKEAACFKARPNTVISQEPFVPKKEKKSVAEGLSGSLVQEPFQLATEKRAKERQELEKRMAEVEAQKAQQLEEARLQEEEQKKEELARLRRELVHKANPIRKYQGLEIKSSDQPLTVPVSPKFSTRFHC
UniProt Q86WJ1: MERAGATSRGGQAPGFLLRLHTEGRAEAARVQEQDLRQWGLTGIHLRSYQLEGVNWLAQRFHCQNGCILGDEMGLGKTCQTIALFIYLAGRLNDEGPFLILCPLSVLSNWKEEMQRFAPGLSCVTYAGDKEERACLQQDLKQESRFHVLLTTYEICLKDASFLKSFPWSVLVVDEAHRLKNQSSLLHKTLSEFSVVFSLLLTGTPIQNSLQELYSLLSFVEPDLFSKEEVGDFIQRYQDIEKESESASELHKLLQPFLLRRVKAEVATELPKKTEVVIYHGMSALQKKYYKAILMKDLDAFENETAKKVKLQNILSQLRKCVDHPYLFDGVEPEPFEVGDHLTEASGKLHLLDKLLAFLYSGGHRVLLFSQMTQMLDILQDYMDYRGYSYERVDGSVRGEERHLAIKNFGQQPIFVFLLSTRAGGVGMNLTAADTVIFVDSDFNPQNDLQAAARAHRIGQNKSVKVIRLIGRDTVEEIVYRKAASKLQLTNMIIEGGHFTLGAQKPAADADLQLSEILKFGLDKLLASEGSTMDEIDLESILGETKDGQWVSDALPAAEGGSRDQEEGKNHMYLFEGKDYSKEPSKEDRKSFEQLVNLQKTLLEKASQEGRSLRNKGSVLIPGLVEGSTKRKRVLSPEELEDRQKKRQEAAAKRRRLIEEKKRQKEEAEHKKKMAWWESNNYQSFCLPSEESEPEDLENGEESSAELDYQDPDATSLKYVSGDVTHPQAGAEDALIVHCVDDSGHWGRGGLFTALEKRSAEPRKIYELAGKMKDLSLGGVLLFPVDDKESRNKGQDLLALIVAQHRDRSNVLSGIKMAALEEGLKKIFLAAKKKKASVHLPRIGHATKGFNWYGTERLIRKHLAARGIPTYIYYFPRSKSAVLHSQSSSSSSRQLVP
UniProt P12956: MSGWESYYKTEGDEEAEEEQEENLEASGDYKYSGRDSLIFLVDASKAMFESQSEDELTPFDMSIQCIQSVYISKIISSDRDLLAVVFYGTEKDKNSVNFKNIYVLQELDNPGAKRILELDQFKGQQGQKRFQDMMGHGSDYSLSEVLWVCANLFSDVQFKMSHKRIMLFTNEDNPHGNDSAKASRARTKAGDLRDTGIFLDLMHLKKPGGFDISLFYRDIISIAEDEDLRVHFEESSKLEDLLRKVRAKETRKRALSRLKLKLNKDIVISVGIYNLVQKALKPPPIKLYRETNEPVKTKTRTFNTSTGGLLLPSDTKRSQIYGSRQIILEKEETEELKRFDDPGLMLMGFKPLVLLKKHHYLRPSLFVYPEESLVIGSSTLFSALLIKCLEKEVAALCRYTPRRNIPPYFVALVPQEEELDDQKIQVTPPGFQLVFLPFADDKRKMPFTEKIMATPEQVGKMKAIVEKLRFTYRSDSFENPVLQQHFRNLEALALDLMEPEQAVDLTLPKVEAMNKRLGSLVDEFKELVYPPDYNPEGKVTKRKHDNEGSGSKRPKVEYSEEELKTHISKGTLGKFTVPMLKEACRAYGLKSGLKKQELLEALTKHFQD
UniProt P09874: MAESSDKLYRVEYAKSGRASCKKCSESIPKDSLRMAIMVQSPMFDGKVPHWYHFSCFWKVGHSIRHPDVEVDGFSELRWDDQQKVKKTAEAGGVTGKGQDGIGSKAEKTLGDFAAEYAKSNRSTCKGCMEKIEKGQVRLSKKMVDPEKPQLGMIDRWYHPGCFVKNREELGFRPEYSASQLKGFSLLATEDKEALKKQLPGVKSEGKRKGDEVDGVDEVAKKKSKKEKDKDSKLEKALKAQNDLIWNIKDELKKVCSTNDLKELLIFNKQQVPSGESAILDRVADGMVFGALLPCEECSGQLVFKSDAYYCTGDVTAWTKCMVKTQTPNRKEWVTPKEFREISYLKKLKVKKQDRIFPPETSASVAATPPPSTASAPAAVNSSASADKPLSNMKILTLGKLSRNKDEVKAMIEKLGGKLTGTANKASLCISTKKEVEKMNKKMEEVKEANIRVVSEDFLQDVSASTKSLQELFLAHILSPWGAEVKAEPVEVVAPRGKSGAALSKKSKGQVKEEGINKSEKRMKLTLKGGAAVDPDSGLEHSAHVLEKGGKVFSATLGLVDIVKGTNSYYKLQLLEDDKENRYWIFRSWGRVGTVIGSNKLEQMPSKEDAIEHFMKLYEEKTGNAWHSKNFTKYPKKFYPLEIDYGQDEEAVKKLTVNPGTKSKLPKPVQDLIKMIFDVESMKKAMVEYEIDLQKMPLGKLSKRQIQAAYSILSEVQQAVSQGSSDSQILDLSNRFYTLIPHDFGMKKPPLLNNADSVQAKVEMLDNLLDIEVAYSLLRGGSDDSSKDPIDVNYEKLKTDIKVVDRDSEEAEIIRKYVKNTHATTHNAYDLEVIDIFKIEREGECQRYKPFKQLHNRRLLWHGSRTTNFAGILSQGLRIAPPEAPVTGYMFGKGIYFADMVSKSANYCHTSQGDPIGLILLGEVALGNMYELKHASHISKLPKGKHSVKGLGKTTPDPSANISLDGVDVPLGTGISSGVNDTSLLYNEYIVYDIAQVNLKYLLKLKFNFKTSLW

Results are given in words; binding and its absence hold for the method and conditions named. In cells and extracts the contact can be indirect. Some binding calls cover weakened binding; strength is not graded here.

For CHD1L (from UniProt Q86WJ1 1-897), the binding entry in assay [1] is “binds”.

Regarding XRCC6 (from UniProt P12956 1-609), the binding entry in assay [1] is reported as “binds”.

With “endogenous PARP1 (from UniProt P09874 1-1014) (enzyme)”, the binding entry in assay [2], in assay [1] and in assay [3] was “binds” each time.

The values above are taken from publication PMC9723622.
